Experimental data taken from US20190248900A1.
No constants are given. Whether binding was seen depends on the method and setting.

Key:
Assay in all cases: ELISA
LRRC4C = biological target: LRRC4C
FASLG = biological target: FASLG
SELP = biological target: SELP
TLR7 = biological target: TLR7
BTNL9 = biological target: BTNL9
TNR = biological target: TNR
GP1BA = biological target: GP1BA
LRP12 = biological target: LRP12
LRRTM2 = biological target: LRRTM2
CD276 = biological target: CD276
TLR4 = biological target: TLR4
C18orf1 = biological target: C18orf1
LRP6 = biological target: LRP6
BTN3A2 = biological target: BTN3A2
LRP11 = biological target: LRP11
PODXL = biological target: PODXL
SPINT2 = biological target: SPINT2
BTN3A1 = biological target: BTN3A1
TNFSF18 = biological target: TNFSF18
CHRDL1 = biological target: CHRDL1
TNFSF12 = biological target: TNFSF12
EMR1 = biological target: EMR1
BTN1A1 = biological target: BTN1A1
TNFSF13 = biological target: TNFSF13
CD40LG = biological target: CD40LG
TNFSF4 = biological target: TNFSF4
ECM1 = biological target: ECM1
Kremen1 = biological target: Kremen1
CD97 = biological target: CD97
SEMA6A = biological target: SEMA6A
BTN3A3 = biological target: BTN3A3
LINGO1 = biological target: LINGO1

- binding (LRRC4C): no binding (tested: 1 ug/ml)
- binding (FASLG): no binding (tested: 1 ug/ml)
- binding (SELP): no binding (tested: 1 ug/ml)
- binding (TLR7): no binding (tested: 1 ug/ml)
- binding (BTNL9): no binding (tested: 1 ug/ml)
- binding (TNR): no binding (tested: 1 ug/ml)
- binding (GP1BA): no binding (tested: 1 ug/ml)
- binding (LRP12): no binding (tested: 1 ug/ml)
- binding (LRRTM2): no binding (tested: 1 ug/ml)
- binding (CD276): no binding (tested: 1 ug/ml)
- binding (TLR4): no binding (tested: 1 ug/ml)
- binding (C18orf1): no binding (tested: 1 ug/ml)
- binding (LRP6): no binding (tested: 1 ug/ml)
- binding (BTN3A2): no binding (tested: 1 ug/ml)
- binding (LRP11): no binding (tested: 1 ug/ml)
- binding (PODXL): no binding (tested: 1 ug/ml)
- binding (SPINT2): no binding (tested: 1 ug/ml)
- binding (BTN3A1): no binding (tested: 1 ug/ml)
- binding (TNFSF18): no binding (tested: 1 ug/ml)
- binding (CHRDL1): no binding (tested: 1 ug/ml)
- binding (TNFSF12): no binding (tested: 1 ug/ml)
- binding (EMR1): no binding (tested: 1 ug/ml)
- binding (BTN1A1): no binding (tested: 1 ug/ml)
- binding (TNFSF13): no binding (tested: 1 ug/ml)
- binding (CD40LG): no binding (tested: 1 ug/ml)
- binding (TNFSF4): no binding (tested: 1 ug/ml)
- binding (ECM1): no binding (tested: 1 ug/ml)
- binding (Kremen1): no binding (tested: 1 ug/ml)
- binding (CD97): no binding (tested: 1 ug/ml)
- binding (SEMA6A): no binding (tested: 1 ug/ml)
- binding (BTN3A3): no binding (tested: 1 ug/ml)
- binding (LINGO1): no binding (tested: 1 ug/ml)
B1: PD1-41C9 (antibody, V domains shown)
VH: QMQLVESGGGVVQPGRSLRLSCAASGFTFSSYAMHWVRQAPGKGLEWVAVISYDGSNKYYADSVKGRFTISRDNSKNTLYLQMNRLRSEDTAVYYCTTTTFDSWGQGTLITVSS
VL: DIVMTQTPLSLPVTPGEAASISCRSSQSLLDSEDGNTYLDWYLQKPGQSPQLLIYTLSHRASGVPDRFSGSGSGTDFTLKISRVAAEDVGLYYCLQRMGFPYTFGQGTKLDIK
